## Primary screen of a compound library

By UniProt entry, the sequences of proteins in these tests, tags left out. Residues count along the entry.
UniProt P9WPC5, whole entry: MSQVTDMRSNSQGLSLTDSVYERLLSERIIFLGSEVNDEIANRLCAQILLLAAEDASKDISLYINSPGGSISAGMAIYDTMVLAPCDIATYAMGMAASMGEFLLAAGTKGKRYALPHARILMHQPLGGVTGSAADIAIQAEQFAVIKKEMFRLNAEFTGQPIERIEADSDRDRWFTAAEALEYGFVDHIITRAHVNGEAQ
UniProt P9WPC3, whole entry partner: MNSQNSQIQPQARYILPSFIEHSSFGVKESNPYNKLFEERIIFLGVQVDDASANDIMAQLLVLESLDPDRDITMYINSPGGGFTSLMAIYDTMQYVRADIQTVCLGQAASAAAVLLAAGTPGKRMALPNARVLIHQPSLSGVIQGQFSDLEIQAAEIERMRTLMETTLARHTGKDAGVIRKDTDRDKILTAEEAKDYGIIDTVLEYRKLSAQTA
UniProt P9WNZ1, whole entry: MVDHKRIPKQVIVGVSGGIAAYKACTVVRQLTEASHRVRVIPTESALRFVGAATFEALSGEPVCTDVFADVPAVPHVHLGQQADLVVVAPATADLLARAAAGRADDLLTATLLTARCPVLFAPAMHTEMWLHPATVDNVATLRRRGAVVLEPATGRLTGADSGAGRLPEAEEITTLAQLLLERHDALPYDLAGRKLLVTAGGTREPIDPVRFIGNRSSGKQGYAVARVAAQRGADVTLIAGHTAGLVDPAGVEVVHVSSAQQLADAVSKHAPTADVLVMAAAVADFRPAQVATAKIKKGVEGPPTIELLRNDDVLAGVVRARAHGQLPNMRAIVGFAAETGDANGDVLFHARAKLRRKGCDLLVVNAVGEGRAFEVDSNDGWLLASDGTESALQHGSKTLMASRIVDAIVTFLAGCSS
UniProt Q8IDJ8, 1-583: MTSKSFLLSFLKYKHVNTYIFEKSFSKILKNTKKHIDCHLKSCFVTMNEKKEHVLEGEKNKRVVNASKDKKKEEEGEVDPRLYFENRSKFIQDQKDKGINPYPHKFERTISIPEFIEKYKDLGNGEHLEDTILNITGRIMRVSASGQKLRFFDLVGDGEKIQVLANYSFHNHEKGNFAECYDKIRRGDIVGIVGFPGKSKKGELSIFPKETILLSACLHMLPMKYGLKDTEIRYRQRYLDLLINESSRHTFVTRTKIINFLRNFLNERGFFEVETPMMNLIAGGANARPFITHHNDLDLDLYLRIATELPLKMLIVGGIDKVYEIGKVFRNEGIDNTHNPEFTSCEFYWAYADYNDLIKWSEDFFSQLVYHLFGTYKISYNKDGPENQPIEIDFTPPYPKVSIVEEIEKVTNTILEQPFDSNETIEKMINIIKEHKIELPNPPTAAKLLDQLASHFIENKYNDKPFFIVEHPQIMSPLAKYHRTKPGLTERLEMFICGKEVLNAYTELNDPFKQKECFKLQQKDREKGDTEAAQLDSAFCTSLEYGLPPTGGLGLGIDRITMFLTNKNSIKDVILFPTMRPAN

Data taken from ChEMBL document CHEMBL3988442, “University of Dundee, Small-Polar-MMV Screening Library” (2021).

Each number is a percent effect as filed. The controls that fix the scale are not given in the record; negative values are as filed. Compounds were drawn at random from those tested, without regard to their results.

A: 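ClpP1P2, Mycobacterium tuberculosis (UniProt P9WPC5 and UniProt P9WPC3). Protease assay of ClpP1P2, read by the AMC dye that it sets free. Tested at 50 µM. Higher reads as stronger inhibition, judged from the few compounds that gave an IC50. Most other retested compounds had strongly negative values. About 69,000 compounds were tested under these conditions; 0.015% (about 10) showed 50% or more at least once.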
B: 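Enzyme assay of CoaBC with a phosphate dye (Biomol Green) read at 650 nm. Target: Coenzyme A biosynthesis protein CoaBC, Mycobacterium tuberculosis (UniProt P9WNZ1). Compounds at 30 µM. Higher reads as stronger inhibition, judged from the few compounds that gave an IC50. Most strong results did not repeat in a second test. About 67,000 compounds were tested under these conditions; 0.06% (about 40) showed 50% or more at least once.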
C: 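Enzyme assay of the cytosolic lysyl-tRNA synthetase in 384-well plates, read by luminescence. Target: Lysine-tRNA ligase, Plasmodium falciparum 3D7 (UniProt Q8IDJ8). Compounds at 30 µM. Higher reads as stronger inhibition, judged from the few compounds that gave an IC50. Of about 69,000 compounds tested this way, about 49 (0.071%) reached 50% or more in at least one test.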
D: 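Cell assay of Leishmania donovani living inside macrophages; the read-out is not stated. Compounds at 30 µM. Higher reads as stronger inhibition (inferred: compounds with an IC50 in retests scored well above the rest). Size under these conditions: about 69,000 compounds, about 1,000 of them at 50% or above in at least one test.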

{"structure": "O=C(CCCc1nc2ccccc2[nH]1)N1CCCC1c1ccccn1", "stereo": "stereo unspecified", "A": 7.339, "B": -5.353, "C": 4.12, "D": -23.87}
{"structure": "Cc1nc(-c2ccccc2)sc1C(=O)NCCNc1ncccn1", "A": -4.287, "B": 4.841, "C": 4.069, "D": 17.53}
{"structure": "NC(=O)C1(Cc2ccccc2-c2ccccc2)CCCN(CC2CC2)C1", "stereo": "stereo unspecified", "A": 4.705, "B": -9.326, "C": -5.922, "D": 45.75}
{"structure": "O=C(O)C(F)(F)F.[H][C@@]12OCCN(CC3CCOCC3)[C@@]1([H])CC[C@H]2OCC1CCOCC1", "D": -17.17}
{"structure": "Cc1nn(C)c(N2CCOCC2)c1CNC1CCc2cc(F)ccc21.Cl", "stereo": "stereo unspecified", "D": 37.43}
{"structure": "CN1CCCN(C(=O)c2nc3c(o2)CN(C(=O)c2cccnc2)C3)CC1.O=C(O)C(F)(F)F.O=C(O)C(F)(F)F", "D": 2.992}
{"structure": "Cc1ccc(CN2CCc3c(C(=O)N(C)C)nn(C)c3C2)s1.O=C(O)C(F)(F)F", "D": 32.14}
{"structure": "Cc1nn(C)cc1CN1CCC(C2Nc3ccccc3S(=O)(=O)N2)CC1", "stereo": "stereo unspecified", "A": -0.4837, "B": -0.8333, "C": 2.572, "D": 5.825}
{"structure": "Cc1csc(CN2CCn3c(COc4cccnc4)cnc3C2C)n1", "stereo": "stereo unspecified", "A": -7.382, "B": 7.797, "C": 2.841}
{"structure": "Cc1nc(COC[C@@H]2CC[C@H]3NCC[C@H]3O2)cs1", "A": 14.77, "C": -28.53}
{"structure": "O=C(c1ccc2nccnc2c1)N1CCN(CCO)[C@@H]2CS(=O)(=O)C[C@@H]21", "A": 6.017, "B": 6.388, "C": 2.474}
{"structure": "CCOC(=O)NCCC(O)c1ccoc1", "stereo": "stereo unspecified", "A": -19.22, "B": 0, "C": 4.332, "D": 28.3}
{"structure": "O=C(O)C(F)(F)F.[H][C@@]12COC[C@]1(COc1cccnc1)CN(C(=O)Cc1ccccc1F)C2", "D": 13.76}
{"structure": "Cc1cc(=O)[nH]c(NCCNC(=O)CN2CCCCCC2)n1", "A": 7.313, "B": -8.065, "C": 4.147, "D": -10.5}
{"structure": "CCC(CC)CS(=O)(=O)NC(=O)C1CCC1", "A": 1.859, "C": 2.339, "D": 1.053}
{"structure": "O=C(CS(=O)(=O)Cc1ccccc1)NC1CCCCNC1=O", "stereo": "stereo unspecified", "A": 4.331, "B": -0.4779, "C": -1.521, "D": -18.13}
{"structure": "COCCC1(CO)CCCN(Cc2ccc(C(F)(F)F)cc2)C1", "stereo": "stereo unspecified", "A": -14.79, "B": 4.673, "C": 5.387, "D": 11.77}
{"structure": "O=C(O)C(F)(F)F.[H][C@@]12CN(CCC(C)C)C[C@]1([H])OCCN2c1ncc(F)cn1", "D": -5.572}
{"structure": "Cc1nn(C)c(C)c1S(=O)(=O)NCC1CCN(c2ccccn2)CC1", "A": 5.449, "B": -2.581, "C": -1.934, "D": 5.403}

2 of the entries, repeated:

- Cc1nn(C)cc1CN1CCC(C2Nc3ccccc3S(=O)(=O)N2)CC1 (stereo unspecified) : A: -0.4837%; B: -0.8333%; C: 2.572%; D: 5.825%
- COCCC1(CO)CCCN(Cc2ccc(C(F)(F)F)cc2)C1 (stereo unspecified) : A: -14.79%; B: 4.673%; C: 5.387%; D: 11.77%